Reference: publication PMC8208822
No constants are given. Whether binding was seen depends on the method and setting. Some entries that bind do so weakly or less than the wild type.

B1: full-length yeast (S. pombe) U2AF35 (U2AF23) (protein, UniProt Q09176 1-216)
chain: MASHLASIYGTEQDKVNCSFYYKIGACRHGERCSRKHVKPNFSQTILCPNMYKNPIHEPNGKKFTQRELAEQFDAFYEDMFCEFSKYGEVEQLVVCDNVGDHLVGNVYVRFKYEESAQNAIDDLNSRWYSQRPVYAELSPVTDFREACCRQHETSECQRGGLCNFMHAKKPSPQLLRDLVLAQRKYLALNAAEEMKKEPNSDSTNRWVSVTAERKN
B2: yeast (S. pombe) U2AF35 (U2AF23) R35K (protein, UniProt Q09176 1-216)
chain: MASHLASIYGTEQDKVNCSFYYKIGACRHGERCSKKHVKPNFSQTILCPNMYKNPIHEPNGKKFTQRELAEQFDAFYEDMFCEFSKYGEVEQLVVCDNVGDHLVGNVYVRFKYEESAQNAIDDLNSRWYSQRPVYAELSPVTDFREACCRQHETSECQRGGLCNFMHAKKPSPQLLRDLVLAQRKYLALNAAEEMKKEPNSDSTNRWVSVTAERKN
B3: yeast (S. pombe) U2AF35 (U2AF23) R35S (protein, UniProt Q09176 1-216)
chain: MASHLASIYGTEQDKVNCSFYYKIGACRHGERCSSKHVKPNFSQTILCPNMYKNPIHEPNGKKFTQRELAEQFDAFYEDMFCEFSKYGEVEQLVVCDNVGDHLVGNVYVRFKYEESAQNAIDDLNSRWYSQRPVYAELSPVTDFREACCRQHETSECQRGGLCNFMHAKKPSPQLLRDLVLAQRKYLALNAAEEMKKEPNSDSTNRWVSVTAERKN
B4: yeast (S. pombe) U2AF35 (U2AF23) S34Y (protein, UniProt Q09176 1-216)
chain: MASHLASIYGTEQDKVNCSFYYKIGACRHGERCYRKHVKPNFSQTILCPNMYKNPIHEPNGKKFTQRELAEQFDAFYEDMFCEFSKYGEVEQLVVCDNVGDHLVGNVYVRFKYEESAQNAIDDLNSRWYSQRPVYAELSPVTDFREACCRQHETSECQRGGLCNFMHAKKPSPQLLRDLVLAQRKYLALNAAEEMKKEPNSDSTNRWVSVTAERKN

Biological target: T1, fragment (93-161 aa) of yeast (S. pombe) U2AF65 (U2AF59) (S. pombe) (UniProt P36629)
T1 sequence: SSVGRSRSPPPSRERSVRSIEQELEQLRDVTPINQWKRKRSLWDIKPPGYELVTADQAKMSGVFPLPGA
Experiment: co-expression and co-purification; untagged U2AF35 and His-StrepII-tagged U2AF65 (93-161 aa) co-expressed in E. coli BL21(DE3) from pETDuet-1; Ni-NTA column and StrepTrap column by the tag on the U2AF65 fragment; tags removed by TEV; size exclusion (Superdex S75) in 20 mM HEPES, pH 7.0, 100 mM NaCl

Binder | binding
B1 | binds
B2 | binds
B3 | binds
B4 | binds
